Patent publication US20060088596A1, “Solubilizing a drug for use in a coating” (ATRIUM MEDICAL CORPORATION, priority 2004, published 2006)
At least one compound was matched to its structure with a doubt left.

Assay: Maximum solubility / drug loading of therapeutic agent in vitamin E / bio-absorbable carrier base coating (crystal inspection after solvent removal)
Type: physicochemical
Settings: 30% vitamin E/70% fish oil base coat; drug loaded from NMP; dried overnight under vacuum
Excerpt: The amount of solvent that can be included in compositions of the present invention is not particularly limited. In accordance with one embodiment of the present invention, the amount of the therapeutic agent to be dissolved can be an amount up to the maximum amount that can be dissolved in the solvent, vitamin E compound and the bio-absorbable carrier component. The maximum amount of the therapeutic agent that can be dissolved is readily determined by simple mixing, as the presence of any non-dissolved therapeutic agent is apparent after solvent removal on visual inspection. In various embodiments, the amount of the therapeutic agent will be less than the maximum that can be dissolved. Upon administration to a subject of the therapeutic agent dissolved in the bio-absorbable carrier and the solvent, the amount of the given solvent can be limited to a pharmaceutically acceptable amount, which can be readily determined by one of skill in the art. In various aspects, it can be appropriate to include amounts of solvents in excess of pharmaceutically acceptable amounts, with excess solvent removed prior to providing the administration of the composition using conventional techniques such as evaporation.
Referring again to FIG. 1, the ratio of a vitamin E compound and the bio-absorbable carrier component is then determined (step 130). […]

## CO[C@H]1C[C@@H]2CC[C@@H](C)[C@@](O)(O2)C(=O)C(=O)N2CCCC[C@H]2C(=O)O[C@H]([C@H](C)C[C@@H]2CC[C@@H](O)[C@H](OC)C2)CC(=O)[C@H](C)/C=C(\C)[C@@H](O)[C@@H](OC)C(=O)[C@H](C)C[C@H](C)/C=C/C=C/C=C/1C [rapamycin]
  maximum level of drug loading attainable before crystals began to form after drying: 5.3%
